Reference: PubChem BioAssay AID540275 (National Center for Advancing Translational Sciences (NCATS), 2011)
About 620 (0.19%) of roughly 320,000 compounds were called active. The inconclusive results got no clear call from the source; some entries with a clear call stand among them for comparison. Rule as the data show it: active = activation above about 80%; inconclusive = between about 30% and that limit; inactive = weaker than that.

Sequences of proteins named here, by UniProt entry; tags and fusion partners are left off.
UniProt Q8NER1, whole entry, looked up: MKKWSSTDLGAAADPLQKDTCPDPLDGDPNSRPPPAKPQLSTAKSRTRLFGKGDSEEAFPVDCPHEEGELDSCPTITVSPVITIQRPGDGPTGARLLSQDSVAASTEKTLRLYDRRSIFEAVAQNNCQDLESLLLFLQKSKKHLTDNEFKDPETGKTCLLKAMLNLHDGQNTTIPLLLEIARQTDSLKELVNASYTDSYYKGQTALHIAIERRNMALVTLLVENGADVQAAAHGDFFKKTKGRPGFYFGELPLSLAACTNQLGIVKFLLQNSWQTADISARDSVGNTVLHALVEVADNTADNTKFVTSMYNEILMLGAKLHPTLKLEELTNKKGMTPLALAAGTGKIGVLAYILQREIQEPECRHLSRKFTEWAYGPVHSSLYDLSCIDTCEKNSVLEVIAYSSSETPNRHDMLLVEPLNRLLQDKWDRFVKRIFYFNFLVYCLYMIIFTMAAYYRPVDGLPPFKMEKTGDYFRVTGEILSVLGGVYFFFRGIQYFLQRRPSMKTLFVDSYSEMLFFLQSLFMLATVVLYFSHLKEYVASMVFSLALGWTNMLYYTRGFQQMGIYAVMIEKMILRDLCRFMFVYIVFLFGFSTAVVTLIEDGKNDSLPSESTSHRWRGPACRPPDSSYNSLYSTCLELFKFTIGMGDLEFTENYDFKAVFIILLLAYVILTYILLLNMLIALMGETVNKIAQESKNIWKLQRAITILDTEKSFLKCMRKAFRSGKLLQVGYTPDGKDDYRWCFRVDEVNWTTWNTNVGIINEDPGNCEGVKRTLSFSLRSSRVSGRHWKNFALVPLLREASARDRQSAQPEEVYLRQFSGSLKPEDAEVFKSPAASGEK

Each compound was assayed against Transient receptor potential cation channel subfamily V member 1 (Homo sapiens) (UniProt Q8NER1) (assay: HTS Assay for Compounds that Act as Agonists of the Vanilloid Receptor 1). Conditions: TRPV1-expressing cells, Fluo-8 calcium influx, agonist mode; at 8.33 µM, active compounds read high.
Summary of the method: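 TRPV1-expressing cells were cultured overnight at 35.5C and loaded with Fluo-8 calcium dye for 40 to 90 min at room temperature. After a 10 s baseline, compound was added and calcium influx was read kinetically for 3 min (ex 480/em 520 nm).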
Also: 0% is about no effect.

Row | SMILES | activation
1 | COc1cc(O)c(C(CC(=O)N2CCN(c3ccccc3)CC2)c2ccc3c(c2)OCO3)c(OC)c1 (stereo not given) | inconclusive: 46.3%
2 | O=C(NC(=S)N(CCc1ccccc1)CCc1ccccc1)c1ccco1 | inconclusive: 38.9%
3 | CCCCCCC1/C(=N\NC(=O)c2ccccc2)CCC1C(=O)OC (stereo not given) | inconclusive: 65%
4 | CCc1ccc(NC(=O)c2noc3c2CCC3)cc1 | inconclusive: 52.1%
5 | CCCCC(=O)NC(c1cccc([N+](=O)[O-])c1)c1c(OC(C)=O)ccc2ccccc12 (stereo not given) | inactive: -0.689%
6 | O=C(Nc1ccc(Br)cc1F)c1ccc2c(c1)OCCO2 | inconclusive: 52.9%
7 | COc1ccc(CNC(=O)CSc2nc3ccc(N)cc3s2)cc1 | inactive: -2.91%
8 | O=C(/C=C/c1ccc(Cl)cc1)N1CCN(c2ccc(Cl)cc2[N+](=O)[O-])CC1 | inconclusive: 36%
9 | CC(=O)NC(Cc1ccccc1F)C(=O)NC1CCN(c2ncccc2[N+](=O)[O-])CC1 (stereo not given) | inactive: -6.46%
10 | Cc1cc2c(cc1C)N(CC(=O)N1CCCC1)C(=O)CC(c1ccccc1)=N2 | inconclusive: 48.6%
11 | CC(C)(C)C(=O)Nc1ccc(C(=O)OC2CCCCC2)cc1 | inconclusive: 33.3%
12 | Cc1c(C#N)c(NC(=O)CCl)n(Cc2cccs2)c1C | inactive: 3.35%
13 | O=C(Nc1nnc(C2CC2)s1)c1cc2ccccc2o1 | inconclusive: 33.5%
14 | CCc1nnc2sc(-c3ccc(NC(=O)c4ccco4)cc3)nn12 | inactive: -3.31%
15 | Cc1ccc(C(=O)/C=C/c2ccccc2)o1 | inconclusive: 39.9%
16 | CN1C(=O)[C@H]2[C@@H](/C=C/c3ccccc3)N3C(=O)CN(Cc4ccc(-c5ccccc5)cc4)C(=O)[C@@]3(Cc3ccccc3)[C@H]2C1=O | inconclusive: 59.3%
17 | CN(CC(=O)N1CCN(c2cccc(Cl)c2)CC1)S(=O)(=O)c1cccs1 | inconclusive: 44.1%
18 | O=C1C/C(=C\c2c(F)cccc2Cl)N2CCC1CC2 | inactive: 15.2%
19 | O=C(NCCc1ccc(F)cc1)c1ccc(Cl)c(S(=O)(=O)N2CCOCC2)c1 | inconclusive: 59.1%
20 | C(=N\Nc1nc(-c2ccccc2)cs1)/c1ccncc1 | inconclusive: 45.8%
21 | Cc1ccc(C2=CC(=O)C[C@H](c3ccc(F)cc3)C2)cc1 | inconclusive: 64.4%
22 | O=C(NCC1CCCN(Cc2cccc(C(F)(F)F)c2)C1)c1ccc(F)cc1 (stereo not given) | inconclusive: 57.7%
23 | CCN(C(=O)COc1cc(=O)n(CC)c2ccccc12)c1cc(Cl)ccc1OC | inconclusive: 41.6%
24 | Cc1ccc(NC(=O)C2CCN(S(=O)(=O)c3cccnc3)CC2)cc1C | inconclusive: 33.5%
25 | O=C(c1ccncc1)c1ccc(NC(=O)c2cccs2)cc1 | inconclusive: 54.1%
26 | O=C(/C=C/c1ccc(Cl)cc1)N(c1ccccn1)C1CCCCC1 | inconclusive: 34.9%
27 | Cc1ccc(C(=O)/C=C/c2ccc(F)cc2)o1 | inconclusive: 76.3%
28 | C=CCOC(=O)C1=C[C@@H](c2csc3ccccc23)C[C@@H](OCc2ccc(CO)cc2)O1 | inconclusive: 53.8%

Row | SMILES | activation
29 | CCOC(=O)C1=NOC(CNc2ncc(C(F)(F)F)cc2Cl)C1 (stereo not given) | inconclusive: 72.7%
30 | Cc1cccc(NC(=S)c2nc3ccccc3s2)c1 | inactive: 1.45%
31 | Cc1cc(/C=N/NC(=O)c2ccccc2F)c(C)n1-c1ccccc1 | inconclusive: 34.8%
32 | CN(c1ccccc1)S(=O)(=O)c1cccc(C(=O)Nc2ccc3c(c2)CCC3)c1 | inactive: 9.28%
33 | C=CCNC(=O)/C(C#N)=C/c1c(C)nn(-c2ccccc2)c1Cl | inconclusive: 30.6%
34 | O=C(NCCCc1ccccc1)c1ccc(-n2cncn2)c([N+](=O)[O-])c1 | inconclusive: 46.8%
35 | CCCCOc1c(C(=O)Nc2ccccc2)nnn1-c1ccccc1 | inconclusive: 46.6%
36 | Cc1cccc(C(=O)Nc2nnc(-c3cccnc3)o2)c1 | inactive: 2.16%
37 | CCn1nc(C(=O)OCC(=O)NC(C)C)c2ccccc2c1=O | inactive: -1.93%
38 | N/C(=N\OC(=O)/C=C/c1ccccc1)c1ccncc1 | inconclusive: 41.8%
39 | Cc1ccc(S(=O)(=O)N(CC(=O)Nc2cccnc2)c2cccc([N+](=O)[O-])c2)cc1 | inconclusive: 56%
40 | CC(C)c1ccc(NC2CCCN(C(=O)CN3C(=O)CSC3=O)C2)cc1 (stereo not given) | inconclusive: 51.8%
41 | O=C(Nc1ccncc1)Nc1ccc(Br)cc1Cl | inconclusive: 39.1%
42 | CC(C)(C)C(=O)Oc1cccc(Nc2ncnc3ccccc23)c1 | inconclusive: 76.6%
43 | CCN(C(=O)c1cnc(NC(C)C)cc1C(F)(F)F)c1ccc(Cl)cc1 | inconclusive: 41.1%
44 | CCCCc1ccc(NC(=S)Nc2ccc(Cl)c(S(=O)(=O)N(C)C)c2)cc1 | inactive: -2.85%
45 | O=C(COC(=O)c1ccc(NS(=O)(=O)c2cccs2)cc1)Nc1nc2c(F)c(F)c(F)cc2s1 | inactive: -4.7%
46 | CCOC(=O)C1(C)C=C(Nc2ccc(NC(C)=O)cc2)C(=O)N1c1ccc(NC(C)=O)cc1 (stereo not given) | inactive: 0.196%
47 | COc1ccc(NC2CCCN(C(=O)c3cccc(N(C)C)c3)C2)cc1 (stereo not given) | inconclusive: 51.9%
48 | Cc1nc2ccn(Cc3ccccc3)c(=O)c2cc1C(=O)N1CCN(c2ccc(F)cc2)CC1 | inactive: -0.481%
49 | Cc1c(NC(=O)c2cnn3c(C(F)(F)F)cc(-c4ccco4)nc23)c(=O)n(-c2ccccc2)n1C | inactive: -1.88%
50 | CCC1(CC)Cc2ccccc2-c2nc(NCCCO)[nH]c(=O)c21 | inconclusive: 61%
51 | CCn1cc(C(=O)NC(C)CCc2ccccc2)c(=O)c2cc(S(=O)(=O)N(C)C)ccc21 (stereo not given) | inconclusive: 51.5%
52 | C/C(=N\NC(=O)c1ccncc1)c1ccc(NC(=O)c2ccc(Cl)cc2)cc1 | inconclusive: 66.4%
53 | CCN(CC)S(=O)(=O)c1ccc(C)c(NC(=O)COC(=O)CNC(=O)c2ccc(C(C)(C)C)cc2)c1 | inconclusive: 30%
54 | CCCCN1C(=O)/C(=C/C=C2\SCCN2C)SC1=S | inconclusive: 37.2%
55 | CN(Cc1ccccc1)C(=O)COC(=O)c1cc([N+](=O)[O-])ccc1N1CCOCC1 | inactive: 2.18%

A few values from the entries so far.
activation, CCn1nc(C(=O)OCC(=O)NC(C)C)c2ccccc2c1=O reads inactive: -1.93%
activation, COc1ccc(NC2CCCN(C(=O)c3cccc(N(C)C)c3)C2)cc1 (stereo not given) reads inconclusive: 51.9%
